Results are given in words; binding and its absence hold for the method and conditions named. For some of these results: In cells and extracts the contact can be indirect. Some binding calls cover weakened binding; strength is not graded here. For some of these results: Tags and fused reporters may be left off the sequences shown.
Legend:
[1] = target: T1, Centrosomal protein of 78 kDa (Cep78), endogenous mouse testicular protein (mouse (endogenous in testis)) (UniProt Q6IRU7); assay: SEC; 2.43 mg wild type C57BL/6J mouse testicular lysate on a Superose 6 increase 10/300 GL column, 1 mL fractions western blotted for Ttc21a, Cep78 and Ift20, Vrk1 as negative control
T1 sequence: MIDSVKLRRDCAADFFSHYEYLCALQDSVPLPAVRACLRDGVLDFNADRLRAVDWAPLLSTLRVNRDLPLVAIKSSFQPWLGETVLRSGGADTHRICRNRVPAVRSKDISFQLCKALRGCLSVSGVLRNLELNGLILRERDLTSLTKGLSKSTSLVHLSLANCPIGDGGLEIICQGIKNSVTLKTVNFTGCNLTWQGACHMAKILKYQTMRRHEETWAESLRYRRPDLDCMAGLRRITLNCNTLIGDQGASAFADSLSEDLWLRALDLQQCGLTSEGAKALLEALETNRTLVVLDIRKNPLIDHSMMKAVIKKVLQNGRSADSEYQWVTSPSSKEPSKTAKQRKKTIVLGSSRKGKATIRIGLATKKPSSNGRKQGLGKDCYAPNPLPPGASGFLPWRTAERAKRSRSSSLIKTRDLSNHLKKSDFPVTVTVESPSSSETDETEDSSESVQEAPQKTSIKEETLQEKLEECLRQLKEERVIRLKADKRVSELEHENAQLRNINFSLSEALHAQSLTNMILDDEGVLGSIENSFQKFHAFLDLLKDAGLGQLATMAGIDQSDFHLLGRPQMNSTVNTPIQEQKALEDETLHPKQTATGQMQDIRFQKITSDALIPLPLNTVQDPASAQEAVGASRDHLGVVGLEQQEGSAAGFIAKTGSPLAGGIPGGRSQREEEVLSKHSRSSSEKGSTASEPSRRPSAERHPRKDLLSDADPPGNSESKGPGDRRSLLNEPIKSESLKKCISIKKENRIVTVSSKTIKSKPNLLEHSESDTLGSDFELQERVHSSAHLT

By UniProt entry, the sequences of proteins in these tests, tags left out.
UniProt Q61025: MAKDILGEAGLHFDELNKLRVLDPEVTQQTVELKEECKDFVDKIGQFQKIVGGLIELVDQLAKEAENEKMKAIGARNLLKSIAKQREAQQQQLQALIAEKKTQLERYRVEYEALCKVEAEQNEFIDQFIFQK

Cep78-HA (mouse) = target: T2, Cep78-HA (mouse) (UniProt Q6IRU7); assay: co-IP; HEK293T cells co-transfected with HA- and Flag-tagged mouse proteins, lysed 48 hr after transfection in Pierce IP lysis buffer; anti-HA magnetic beads or anti-DYKDDDDK resin at 4°C overnight; legend: 'in 1% SDS'; immunoblot with anti-HA or anti-Flag; Ap80-NB-HA as negative control
T2 sequence: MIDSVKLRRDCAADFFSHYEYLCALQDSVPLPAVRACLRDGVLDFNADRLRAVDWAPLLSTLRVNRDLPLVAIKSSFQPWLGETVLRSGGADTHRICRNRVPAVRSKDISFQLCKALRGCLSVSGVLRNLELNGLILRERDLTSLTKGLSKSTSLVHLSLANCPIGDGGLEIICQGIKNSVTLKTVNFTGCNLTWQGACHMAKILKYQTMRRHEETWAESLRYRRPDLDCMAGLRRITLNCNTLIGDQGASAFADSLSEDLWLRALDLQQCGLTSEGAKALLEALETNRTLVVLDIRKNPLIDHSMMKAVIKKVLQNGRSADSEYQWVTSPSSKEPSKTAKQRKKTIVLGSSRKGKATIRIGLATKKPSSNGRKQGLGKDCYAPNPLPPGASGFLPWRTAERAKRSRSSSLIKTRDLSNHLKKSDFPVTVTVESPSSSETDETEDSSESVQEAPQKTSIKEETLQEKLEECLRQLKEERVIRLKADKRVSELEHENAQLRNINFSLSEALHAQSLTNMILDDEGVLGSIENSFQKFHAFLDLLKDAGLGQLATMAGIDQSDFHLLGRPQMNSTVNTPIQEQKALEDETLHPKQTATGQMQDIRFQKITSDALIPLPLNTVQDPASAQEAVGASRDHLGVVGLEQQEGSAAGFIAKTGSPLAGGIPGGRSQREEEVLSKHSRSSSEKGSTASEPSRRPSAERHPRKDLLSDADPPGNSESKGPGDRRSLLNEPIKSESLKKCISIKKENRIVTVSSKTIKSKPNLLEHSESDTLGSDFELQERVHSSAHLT

Molecule: Intraflagellar transport protein 20 homolog (Ift20), endogenous mouse testicular protein (from UniProt Q61025 1-132)
- binding [1]: binds

Molecule: Ift20-Flag (from UniProt Q61025 1-132)
- binding (Cep78-HA (mouse)): binds

B1: Ttc21a-Flag (protein, UniProt Q8C0S4 1-1314)
chain: MSSDDSSLMASIIYYSQEKYFHHVLQAANVGLERYSSDPALQFFRAYGILGEDHIHDAISELEGIQSHPDTSLCAVIALLSAHKSCDTIDIEAVQELESSLKEIRRSASSTALYYASLFLWFMGHHDKAREYVDHMLKVSSGSKEGYVLKGWVDLTSSKPHVVKKSIKYLEQGTQDTKDVLGLMGKATYFMTQQNFSGALEVANQVTLACSNFLPALVLKMKLFLARQDWDQTIETGQRILEKDENNIDAWQILAVHELVKEGNTDRAADRVRNLIKALETGEPHNPNLHLKKILVISRLCGRHQVVHRLVSGFLERIFMATPSCALVATELGYLFILHQQVKEACLWYKEAMKLEENRLAALAGSIWCQILQGQLEEAAHQLEFLKEVQQSLGKSELLVFLQALVAAKKQRLEQEATALLKEAVEVHFSSMQGLALSPEYFEKLDPLFLVCIAKEYLHFCPKQPRSPGQLVSPLLKQVAMILSPVVKVAPAMMEPLYVTAQVKFLSGELENAQSTLQRCLELDPTFVDAHLLMSQIYLAQGNFAMCSHCLELGVSHNFQVRDHPLYHFIKARALNKTGDYAEAIKTLKMIIKVPTSKAEEGRKSQSPSVRPSERASILLELVEALRLNGELHEATKIMQDAINEFSGTPEEMRITVANVDLALSKGNVDLALNMLRGITPKQPCYTEAKEKMASIYLHTRKDVRLYIGCYVELCEHLPGPHSSLLLGDAFMNIQEPEKALEVYDEAYRKNPHDASLVSRIGQAYVKTHQYAKAINYYEAAQKISGQDFLCCELAELLLKLKKYHKAEKVLKQALERDSGVKDIPSMINEVKCLLLLAKVYKSHKKEEVMETLNLALDLQSRILKRVPLEQSEMIPFQNQLAASICIQIGEHHLAEKDYDSALKSYKDALAYSPTDSKVVLELAHLYLLLGQLDLCEQRCAPLLEMEQTHERAAVMLADLMFRRQNYETAINLYHQVLEKAPDNFLVLNKLVDLLRRSGKLEEAPAFFELAKKVSSRVPLEPGFNYCQGIYFWHIGQPNEALRFLNKARKDSTWGQLATCYMVQICLNPDNEIVGGEAFESLVGDSNSASRKESQQHGVRTAEKLLREFYPHSESGQTQLRLLQNLCLLATREKANVEVALGAFIEMAQAEKDSIPALLAMAQAYILLKQVPKARTQLKRLAKVPWTVDEAEDLEKSWLLLADIYCQGGKFDLALELLRRCLQYNKSCCRAYEYMGFIMEKEQSYKDAATNYELAWKYSHQANPAIGFKLAFNYLKDKKFVDAIEVCHSVLTEHPKYPKIREEILEKAQGSLRP
- binding (Cep78-HA (mouse)): binds

B2: Tetratricopeptide repeat protein 21 A (Ttc21a), endogenous mouse testicular protein (protein, UniProt Q8C0S4 1-1314)
chain: MSSDDSSLMASIIYYSQEKYFHHVLQAANVGLERYSSDPALQFFRAYGILGEDHIHDAISELEGIQSHPDTSLCAVIALLSAHKSCDTIDIEAVQELESSLKEIRRSASSTALYYASLFLWFMGHHDKAREYVDHMLKVSSGSKEGYVLKGWVDLTSSKPHVVKKSIKYLEQGTQDTKDVLGLMGKATYFMTQQNFSGALEVANQVTLACSNFLPALVLKMKLFLARQDWDQTIETGQRILEKDENNIDAWQILAVHELVKEGNTDRAADRVRNLIKALETGEPHNPNLHLKKILVISRLCGRHQVVHRLVSGFLERIFMATPSCALVATELGYLFILHQQVKEACLWYKEAMKLEENRLAALAGSIWCQILQGQLEEAAHQLEFLKEVQQSLGKSELLVFLQALVAAKKQRLEQEATALLKEAVEVHFSSMQGLALSPEYFEKLDPLFLVCIAKEYLHFCPKQPRSPGQLVSPLLKQVAMILSPVVKVAPAMMEPLYVTAQVKFLSGELENAQSTLQRCLELDPTFVDAHLLMSQIYLAQGNFAMCSHCLELGVSHNFQVRDHPLYHFIKARALNKTGDYAEAIKTLKMIIKVPTSKAEEGRKSQSPSVRPSERASILLELVEALRLNGELHEATKIMQDAINEFSGTPEEMRITVANVDLALSKGNVDLALNMLRGITPKQPCYTEAKEKMASIYLHTRKDVRLYIGCYVELCEHLPGPHSSLLLGDAFMNIQEPEKALEVYDEAYRKNPHDASLVSRIGQAYVKTHQYAKAINYYEAAQKISGQDFLCCELAELLLKLKKYHKAEKVLKQALERDSGVKDIPSMINEVKCLLLLAKVYKSHKKEEVMETLNLALDLQSRILKRVPLEQSEMIPFQNQLAASICIQIGEHHLAEKDYDSALKSYKDALAYSPTDSKVVLELAHLYLLLGQLDLCEQRCAPLLEMEQTHERAAVMLADLMFRRQNYETAINLYHQVLEKAPDNFLVLNKLVDLLRRSGKLEEAPAFFELAKKVSSRVPLEPGFNYCQGIYFWHIGQPNEALRFLNKARKDSTWGQLATCYMVQICLNPDNEIVGGEAFESLVGDSNSASRKESQQHGVRTAEKLLREFYPHSESGQTQLRLLQNLCLLATREKANVEVALGAFIEMAQAEKDSIPALLAMAQAYILLKQVPKARTQLKRLAKVPWTVDEAEDLEKSWLLLADIYCQGGKFDLALELLRRCLQYNKSCCRAYEYMGFIMEKEQSYKDAATNYELAWKYSHQANPAIGFKLAFNYLKDKKFVDAIEVCHSVLTEHPKYPKIREEILEKAQGSLRP
- binding [1]: binds

From paper PMC9984195
